According to patent US10563263B2, “Genetic polymorphisms associated with statin response and cardiovascular diseases, methods of detection and uses thereof” (CELERA CORPORATION, priority 2010, dated 2020):
Further values from the same series stand in other lists.

Test system: revascularization, unstable angina requiring hospitalization, MI, all causes of death, or stroke
Assay: PROVE IT-TIMI 22: SNP by treatment interaction (high-dose atorvastatin vs standard-dose pravastatin), logistic regression (synergy index), primary composite endpoint
Format: in vivo, human

CC(C)c1c(C(=O)Nc2ccccc2)c(-c2ccccc2)c(-c2ccc(F)cc2)n1CC[C@@H](O)C[C@@H](O)CC(=O)O [Atorvastatin, atorvastatin]
OR (rs2095606, allele A, DOM, Imputed, PROVE-IT, vs pravastatin): 0.9481 | OR (rs2102374, allele A, ADD, Imputed, PROVE-IT, vs pravastatin): 1.135 | OR (rs2102374, allele A, DOM, Imputed, PROVE-IT, vs pravastatin): 1.187 | OR (rs2108426, allele C, DOM, Imputed, PROVE-IT, vs pravastatin): 0.5934 | OR (rs2108426 allele C (A1), DOM, Imputed, atorvastatin vs pravastatin): 0.5934 | OR (rs2110664, allele A, DOM, Imputed, PROVE-IT, vs pravastatin): 1.47 | OR (rs2110664 allele A (A1), DOM, Imputed, atorvastatin vs pravastatin): 1.47 | OR (rs2132242, allele A, ADD, Imputed, PROVE-IT, vs pravastatin): 0.7679 | OR (rs2132242, allele A, DOM, Imputed, PROVE-IT, vs pravastatin): 0.6978 | OR (rs2132242 allele A (A1), DOM, Imputed, atorvastatin vs pravastatin): 0.6978 | OR (rs2151644 allele T (A1), DOM, Imputed, atorvastatin vs pravastatin): 1.184 | OR (rs2158958, allele A, DOM, Imputed, PROVE-IT, vs pravastatin): 0.5934 | OR (rs2158958 allele A (A1), DOM, Imputed, atorvastatin vs pravastatin): 0.5934 | OR (rs2158961, allele G, DOM, Imputed, PROVE-IT, vs pravastatin): 0.6399 | OR (rs2158961 allele G (A1), DOM, Imputed, atorvastatin vs pravastatin): 0.6399 | OR (rs2163046, allele A, DOM, Imputed, PROVE-IT, vs pravastatin): 1.529 | OR (rs2164099 allele G (A1), ADD, Imputed, atorvastatin vs pravastatin): 1.075 | OR (rs2173254 allele G (A1), REC, Imputed, atorvastatin vs pravastatin): 1.019 | OR (rs2180286, allele G, DOM, Imputed, PROVE-IT, vs pravastatin): 0.587 | OR (rs2180684, allele A, DOM, Imputed, PROVE-IT, vs pravastatin): 1.876 | OR (rs2188079, allele C, ADD, Imputed, PROVE-IT, vs pravastatin): 1.028 | OR (rs2188079 allele C (A1), ADD, Imputed, atorvastatin vs pravastatin): 1.028 | OR (rs2190304 allele G (A1), REC, Imputed, atorvastatin vs pravastatin): 1.465 | OR (rs2190597 allele T (A1), DOM, Imputed, atorvastatin vs pravastatin): 0.6496 | OR (rs2190598, allele T, DOM, Imputed, PROVE-IT, vs pravastatin): 0.5934 | OR (rs2190598 allele T (A1), DOM, Imputed, atorvastatin vs pravastatin): 0.5934 | OR (rs2190600, allele A, DOM, Imputed, PROVE-IT, vs pravastatin): 0.577 | OR (rs2190600 allele A (A1), DOM, Imputed, atorvastatin vs pravastatin): 0.577 | OR (rs2218084 allele T (A1), REC, Imputed, atorvastatin vs pravastatin): 2.942 | OR (rs2224184, allele T, DOM, Genotyped, PROVE-IT, vs pravastatin): 0.587 | OR (rs2243860 allele A (A1), REC, Imputed, atorvastatin vs pravastatin): 1.553 | OR (rs2246564 allele T (A1), DOM, Imputed, atorvastatin vs pravastatin): 1.177 | OR (rs2248236, allele C, ADD, Imputed, PROVE-IT, vs pravastatin): 0.6625 | OR (rs2248236, allele C, DOM, Imputed, PROVE-IT, vs pravastatin): 0.5404 | OR (rs2248236 allele C (A1), DOM, Imputed, atorvastatin vs pravastatin): 0.5404 | OR (rs2250340 allele T (A1), DOM, Imputed, atorvastatin vs pravastatin): 1.184 | OR (rs2257192 allele G (A1), DOM, Imputed, atorvastatin vs pravastatin): 1.177 | OR (rs2265733, allele C, ADD, Imputed, PROVE-IT, vs pravastatin): 1.135 | OR (rs2265733, allele C, DOM, Imputed, PROVE-IT, vs pravastatin): 1.187 | OR (rs2270584, allele A, ADD, Imputed, PROVE-IT, vs pravastatin): 0.7517 | OR (rs2270584, allele A, DOM, Imputed, PROVE-IT, vs pravastatin): 0.6747 | OR (rs2270584 allele A (A1), DOM, Imputed, atorvastatin vs pravastatin): 0.6747 | OR (rs2270586, allele A, ADD, Imputed, PROVE-IT, vs pravastatin): 0.7586 | OR (rs2270586, allele A, DOM, Imputed, PROVE-IT, vs pravastatin): 0.6883 | OR (rs2270586 allele A (A1), DOM, Imputed, atorvastatin vs pravastatin): 0.6883 | OR (rs2270589 allele A (A1), ADD, Imputed, atorvastatin vs pravastatin): 0.6468 | OR (rs2270589 allele A (A1), DOM, Imputed, atorvastatin vs pravastatin): 0.5799 | OR (rs2296889 allele C (A1), DOM, Imputed, atorvastatin vs pravastatin): 0.9005 | OR (rs2301346 allele C (A1), ADD, Imputed, atorvastatin vs pravastatin): 1.001 | OR (rs2301346 allele C (A1), DOM, Imputed, atorvastatin vs pravastatin): 1.026 | OR (rs2317057, allele T, ADD, Imputed, PROVE-IT, vs pravastatin): 0.5936 | OR (rs2322101, allele A, REC, Imputed, PROVE-IT, vs pravastatin): 2.67 | OR (rs2327929, allele G, REC, Imputed, PROVE-IT, vs pravastatin): 1.411 | OR (rs2327929 allele G (A1), REC, Imputed, atorvastatin vs pravastatin): 1.411 | OR (rs2332844, allele A, ADD, Imputed, PROVE-IT, vs pravastatin): 1.301 | OR (rs2332844, allele A, REC, Imputed, PROVE-IT, vs pravastatin): 1.427 | OR (rs2349170, allele G, DOM, Imputed, PROVE-IT, vs pravastatin): 1.414 | OR (rs2356722, allele G, DOM, Imputed, PROVE-IT, vs pravastatin): 1.255 | OR (rs2357486 allele C (A1), REC, Imputed, atorvastatin vs pravastatin): 0.8855 | OR (rs2364956, allele T, ADD, Imputed, PROVE-IT, vs pravastatin): 1.168 | OR (rs2373793, allele G, DOM, Imputed, PROVE-IT, vs pravastatin): 1.599 | OR (rs2373793 allele G (A1), DOM, Imputed, atorvastatin vs pravastatin): 1.599 | OR (rs2377622 allele T (A1), REC, Imputed, atorvastatin vs pravastatin): 0.2954 | OR (rs2383903, allele G, DOM, Imputed, PROVE-IT, vs pravastatin): 0.7568 | OR (rs2383903 allele G (A1), DOM, Imputed, atorvastatin vs pravastatin): 0.7568 | OR (rs2387945, allele G, DOM, Imputed, PROVE-IT, vs pravastatin): 1.747 | OR (rs2389863, allele A, DOM, Imputed, PROVE-IT, vs pravastatin): 0.5655 | OR (rs2389866 allele C (A1), DOM, Imputed, atorvastatin vs pravastatin): 0.5404 | OR (rs2389869 allele C (A1), DOM, Imputed, atorvastatin vs pravastatin): 0.5404 | OR (rs2418541 allele A (A1), DOM, Imputed, atorvastatin vs pravastatin): 0.593 | OR (rs2418542 allele A (A1), DOM, Imputed, atorvastatin vs pravastatin): 0.593 | OR (rs2418548 allele C (A1), DOM, Imputed, atorvastatin vs pravastatin): 0.6036 | OR (rs2476976 allele C (A1), DOM, Imputed, atorvastatin vs pravastatin): 1.391 | OR (rs2483639 allele A (A1), DOM, Imputed, atorvastatin vs pravastatin): 1.177 | OR (rs2483640 allele A (A1), DOM, Imputed, atorvastatin vs pravastatin): 1.177 | OR (rs2544780 allele T (A1), REC, Imputed, atorvastatin vs pravastatin): 3.054 | OR (rs2586458 allele T (A1), DOM, Imputed, atorvastatin vs pravastatin): 1.439 | OR (rs2593272 allele G (A1), ADD, Imputed, atorvastatin vs pravastatin): 0.9033 | OR (rs2593273 allele T (A1), ADD, Imputed, atorvastatin vs pravastatin): 0.9769 | OR (rs2622499 allele G (A1), DOM, Imputed, atorvastatin vs pravastatin): 0.5404 | OR (rs2656822 allele T (A1), ADD, Imputed, atorvastatin vs pravastatin): 0.9033 | OR (rs2656823 allele G (A1), ADD, Imputed, atorvastatin vs pravastatin): 0.9033 | OR (rs2656825 allele T (A1), ADD, Imputed, atorvastatin vs pravastatin): 0.986 | OR (rs2764766 allele C (A1), REC, Imputed, atorvastatin vs pravastatin): 3.069 | OR (rs2793101 allele T (A1), ADD, Imputed, atorvastatin vs pravastatin): 1.081 | OR (rs2793101 allele T (A1), DOM, Imputed, atorvastatin vs pravastatin): 1.046 | OR (rs2795871 allele A (A1), ADD, Imputed, atorvastatin vs pravastatin): 0.5722 | OR (rs2795886 allele A (A1), ADD, Imputed, atorvastatin vs pravastatin): 0.5272 | OR (rs2795886 allele A (A1), DOM, Imputed, atorvastatin vs pravastatin): 0.5272 | OR (rs2870464 allele G (A1), DOM, Imputed, atorvastatin vs pravastatin): 1.969 | OR (rs2875528 allele T (A1), DOM, Imputed, atorvastatin vs pravastatin): 0.8843 | OR (rs2876227 allele C, ADD, Imputed, atorvastatin vs pravastatin): 1.389 | OR (rs2921983 allele C, ADD, Imputed, atorvastatin vs pravastatin): 0.8945 | OR (rs2987537 allele C, DOM, Imputed, atorvastatin vs pravastatin): 1.58 | OR (rs2996416 allele C, ADD, Imputed, atorvastatin vs pravastatin): 1.725 | OR (rs2996416 allele C, DOM, Imputed, atorvastatin vs pravastatin): 1.754 | OR (rs3015527 allele C, ADD, Imputed, atorvastatin vs pravastatin): 1.884 | OR (rs3015527 allele C, DOM, Imputed, atorvastatin vs pravastatin): 1.945 | OR (rs3015530 allele C, ADD, Imputed, atorvastatin vs pravastatin): 1.725 | OR (rs3015530 allele C, DOM, Imputed, atorvastatin vs pravastatin): 1.754 | OR (rs3015531 allele T, ADD, Imputed, atorvastatin vs pravastatin): 1.725 | OR (rs3015531 allele T, DOM, Imputed, atorvastatin vs pravastatin): 1.754 | OR (rs3015535 allele C, ADD, Imputed, atorvastatin vs pravastatin): 1.725 | OR (rs3015535 allele C, DOM, Imputed, atorvastatin vs pravastatin): 1.754 | OR (rs3019407 allele A, REC, Imputed, atorvastatin vs pravastatin): 1.025 | OR (rs3756154 allele C, DOM, Imputed, atorvastatin vs pravastatin): 0.5162 | OR (rs3793044 allele C, ADD, Imputed, atorvastatin vs pravastatin): 1.091 | OR (rs3793053 allele C, ADD, Imputed, atorvastatin vs pravastatin): 0.995 | OR (rs3793053 allele C, DOM, Imputed, atorvastatin vs pravastatin): 0.9919 | OR (rs3796246 allele G, ADD, Imputed, atorvastatin vs pravastatin): 0.9554 | OR (rs3796246 allele G, DOM, Imputed, atorvastatin vs pravastatin): 0.9829 | OR (rs3805996 allele G, ADD, Imputed, atorvastatin vs pravastatin): 1.042 | OR (rs3805996 allele G, DOM, Imputed, atorvastatin vs pravastatin): 1.106 | OR (rs3806003 allele A, ADD, Imputed, atorvastatin vs pravastatin): 1.091 | OR (rs3806004 allele T, ADD, Imputed, atorvastatin vs pravastatin): 0.9899 | OR (rs3806004 allele T, DOM, Imputed, atorvastatin vs pravastatin): 0.982 | OR (rs3806010 allele T, ADD, Imputed, atorvastatin vs pravastatin): 0.9899 | OR (rs3806010 allele T, DOM, Imputed, atorvastatin vs pravastatin): 0.982 | OR (rs3806014 allele T, ADD, Imputed, atorvastatin vs pravastatin): 1.014 | OR (rs3806014 allele T, DOM, Imputed, atorvastatin vs pravastatin): 1.002 | OR (rs3806015 allele A, ADD, Imputed, atorvastatin vs pravastatin): 1.004 | OR (rs3806015 allele A, DOM, Imputed, atorvastatin vs pravastatin): 0.9945 | OR (rs3806018 allele A, ADD, Imputed, atorvastatin vs pravastatin): 0.9899 | OR (rs3806018 allele A, DOM, Imputed, atorvastatin vs pravastatin): 0.982 | OR (rs3806019 allele A, ADD, Imputed, atorvastatin vs pravastatin): 0.974 | OR (rs3806019 allele A, DOM, Imputed, atorvastatin vs pravastatin): 0.9676 | OR (rs3806024 allele T, ADD, Imputed, atorvastatin vs pravastatin): 1.029 | OR (rs3806024 allele T, DOM, Imputed, atorvastatin vs pravastatin): 1.001
